According to the supplement of paper PMC3334620:
Over roughly 33,000 sequences, “E-score (-0.5 to 0.5)” has its median near -0.015; the highest 2% begin near 0.3. Some of the results follow.

biological target: T1, Abf1 (UniProt P14164); assay: PBM E-score (8-mer binding enrichment) (E-score (-0.5 to 0.5)); higher = stronger / more preferred TF binding; settings: protein concentration: 200 nM; construct: GST-full length
T1 sequence: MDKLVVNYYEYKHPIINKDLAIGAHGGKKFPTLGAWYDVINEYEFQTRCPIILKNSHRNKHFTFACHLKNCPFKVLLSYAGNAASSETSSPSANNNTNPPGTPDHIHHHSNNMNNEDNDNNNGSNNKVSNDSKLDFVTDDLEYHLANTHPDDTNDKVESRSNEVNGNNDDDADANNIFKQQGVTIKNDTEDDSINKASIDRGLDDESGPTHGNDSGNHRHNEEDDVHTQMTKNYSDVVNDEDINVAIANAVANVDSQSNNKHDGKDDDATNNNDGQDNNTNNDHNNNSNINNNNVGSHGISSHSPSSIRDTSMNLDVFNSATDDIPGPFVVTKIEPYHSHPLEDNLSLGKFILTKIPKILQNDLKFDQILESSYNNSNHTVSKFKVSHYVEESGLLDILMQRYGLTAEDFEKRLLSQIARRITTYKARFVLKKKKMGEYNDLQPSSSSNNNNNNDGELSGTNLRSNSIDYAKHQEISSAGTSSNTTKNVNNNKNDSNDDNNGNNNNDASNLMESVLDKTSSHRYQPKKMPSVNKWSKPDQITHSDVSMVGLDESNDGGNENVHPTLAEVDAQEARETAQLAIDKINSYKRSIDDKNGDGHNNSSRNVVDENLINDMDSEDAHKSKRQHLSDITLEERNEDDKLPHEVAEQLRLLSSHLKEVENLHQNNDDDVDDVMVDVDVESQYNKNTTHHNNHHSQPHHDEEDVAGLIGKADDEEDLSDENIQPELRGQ
Method in brief: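 Universal all-10-mer Agilent arrays, fresh or stripped once, were converted to double-stranded form by primer extension. GST-tagged yeast transcription factors from PURExpress in vitro transcription/translation, full-length or DNA-binding domain only, were applied at about 100-200 nM and detected with fluorescent anti-GST. After masliner normalisation, the Universal PBM Analysis Suite scored each ungapped eight-base word together with its reverse complement by E-score.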

Row | Sequence | PBM E-score
1 | GCTCCGCA | 0.0345
2 | TCGGAAAA | 0.0956
3 | AATGACCA | 0.256
4 | CGTGCACA | 0.196
5 | AGTTCGAC | -0.0169
6 | ATAGGGCA | -0.119
7 | CCATACCG | -0.262
8 | AACAGCAT | -0.00917
9 | GACCGTCA | 0.144
10 | GCATGACC | 0.0806
11 | AGTTAACA | 0.122
12 | GTAAACAC | 0.00826
13 | CACTTTCA | 0.069
14 | AGTACCTA | 0.0876
15 | TATGAATA | 0.081
16 | AATACTGC | 0.105
17 | CAGCCGGA | -0.0149
18 | AAGTATAA | 0.192
19 | ACGGCACC | 0.0263
20 | GCCCACAA | -0.158
21 | ACTCCTTA | -0.0759
22 | CATTCCTA | -0.046
23 | TCGAATCA | 0.00024
24 | GTGCCGCA | 0.165
25 | TCATTCCA | 0.169

Row | Sequence | PBM E-score
26 | AGCTCGAA | -0.0104
27 | TCGAGGCA | -0.00215
28 | CAATGGCG | -0.201
29 | AAAAGCGC | -0.152
30 | GAAATGGC | -0.108
31 | ACCTAAGT | 0.156
32 | AACTAACC | 0.161
33 | ATTGTCAA | -0.0577
34 | CGAGAGCC | -0.21
35 | CAGTTACC | -0.0928
36 | GATAAATC | 0.195
37 | ACGGGACT | 0.104
38 | AGCCTAGA | -0.227
39 | TCCCTCCA | -0.206
40 | ACGCCGCA | 0.00303
41 | CAGCGGTA | -0.177
42 | CATAGAAG | 0.00751
43 | AATTGACA | 0.01
44 | CGTAGGGC | -0.0606
45 | GTCTCATA | 0.0549
46 | TGGAACAA | -0.00558
47 | CTTCGCAC | -0.00026
48 | AGTTACGG | 0.0796
49 | AATGCGCA | 0.0516
50 | ATGTATTG | 0.0248

Row | Sequence | PBM E-score
51 | AATTCCTG | -0.174
52 | CAGACAGC | -0.289
53 | GTGCGTAA | 0.0996
54 | ACAAGAGC | -0.0975
55 | AACAATAC | 0.0411
56 | TCACCACA | 0.115
57 | ATTACAAA | 0.176
58 | CAGGTATC | -0.0743
59 | CATTTTTC | 0.189
60 | AAGTCTTC | 0.0143
61 | AAATACGC | 0.0308
62 | ATTCAGCG | 0.0115
63 | AGACCCTA | -0.19
64 | CAAGCCAC | -0.0725
65 | ATACGAAA | 0.349
66 | CCGCCCGA | -0.137
67 | AGATGTTC | -0.0873
68 | ACAATTCG | 0.111
69 | GACCCACA | -0.114
70 | AAATCCGC | -0.0551
71 | CGGCACAA | 0.133
72 | GGTTTGTA | 0.00375
73 | ACTAATAC | 0.0887
74 | CCATGTAC | 0.0435
75 | CGGCCTTC | -0.00784

Look-ups from the list:
CCGCCCGA – PBM E-score: -0.137
CCATGTAC – PBM E-score: 0.0435
AAATACGC – PBM E-score: 0.0308

(listing goes on)

Row | Sequence | PBM E-score
76 | AAATCGAG | 0.0194
77 | ACCAGGGG | -0.326
78 | GCCGTAAC | 0.211
79 | CTGTTAAA | 0.0575
80 | CGCTGCAC | -0.0424
81 | GCTCCGTA | 0.23
82 | AGCTCCCG | -0.167
83 | CATTCAAA | 0.129
84 | ATATATAC | 0.262
85 | GTAGGAAA | 0.181
86 | TATATCCA | 0.121
87 | AACCAGGG | -0.116
88 | ATGCAACA | -0.0408
89 | CACAGTCG | -0.0286
90 | GTGTCAAC | -0.0112
91 | AGAATTTG | -0.0116
92 | AAAGCTGG | -0.172
93 | AACCCAGC | -0.185
94 | GCCTATAA | -0.143
95 | GCGGACAC | -0.159
96 | CAACCCCG | 0.0234
97 | CGAACTCC | 0.0914
98 | GCCTCAGA | -0.204
99 | AATTGTCT | 0.0233
100 | AGGGTTGG | -0.138

From no. 15 as far as 17, copied from above:
Row | Sequence | PBM E-score
15 | TATGAATA | 0.081
16 | AATACTGC | 0.105
17 | CAGCCGGA | -0.0149

Next records

Row | Sequence | PBM E-score
101 | CAATTTTA | 0.178
102 | TACCGATA | 0.0136
103 | TCTTCCCA | -0.315
104 | CGCTAGCG | -0.101
105 | CAGGGGTA | -0.0883
106 | AACCTTGT | -0.153
107 | ACCGTCAT | 0.362
108 | ACCACTAG | -0.105
109 | CCTCGACG | 0.057
110 | CGGCCCAG | -0.265
111 | CCCGTCCG | -0.292
112 | CCAATCCA | -0.185
113 | ACTCCAGC | -0.129
114 | AAGATGCT | 0.0839
115 | GCGACAGC | -0.179
116 | AAGAATGA | 0.293
117 | GCGGCGTA | -0.102
118 | AACCCCAC | -0.204
119 | GACTCCCC | -0.221
120 | AACCCCAT | -0.372
121 | CAAGCACG | 0.126
122 | ACATTGTG | -0.132
123 | ACATGGCA | 0.039
124 | AGAGGGGG | -0.35
125 | AAACACGG | 0.172

Row | Sequence | PBM E-score
126 | ACGCGAAG | 0.0352
127 | CGTTTCGA | -0.0431
128 | ACGTGGCC | 0.0605
129 | ATTAATTA | 0.132
130 | AGGAGTGA | 0.155
131 | AAACTACC | 0.0231
132 | CAACCCGA | -0.0131
133 | AACTCTGC | -0.318
134 | GGAAACTA | -0.00225
135 | ATTTCGCG | 0.0883
136 | TACCTCTA | 0.047
137 | CTCCGAGA | 0.0106
138 | CAGGGAGA | -0.058
139 | ACGACGGA | 0.251
140 | AAGTTGGG | -0.0337
141 | TCATGCGA | 0.154
142 | ATTTCAAC | -0.0333
143 | CGAGGCAG | -0.0274
144 | ATCTGAGC | 0.133
145 | CTGAGATC | -0.0186
146 | AGAAGGAC | -0.182
147 | ATTCGTTC | 0.171
148 | GAAAACTC | -0.0772
149 | ACCAGGTG | -0.137
150 | GAGACCCA | -0.219

Row | Sequence | PBM E-score
151 | AACTAAGC | 0.105
152 | GAAAATAA | 0.165
153 | CATTGCTC | -0.0812
154 | CAGTCTTA | -0.12
155 | GGCCCGCC | -0.339
156 | GTTCATTA | -0.0182
157 | GTTTAGAA | 0.163
158 | AAGTCGAG | -0.00544
159 | CCACAGGG | -0.191
160 | CTGGCGAA | -0.0469
161 | AGTTGAGC | -0.142
162 | AGAAGGTA | 0.0439
163 | CGTGGTCC | 0.065
164 | CCTATGAC | 0.0281
165 | CGATGTCC | 0.115
166 | ATCAGTGA | 0.2
167 | GGAGTTAA | -0.134
168 | AAAATGCT | 0.133
169 | AGGTTCTA | -0.0694
170 | ATCCACGA | 0.199
171 | CAAGCAGC | -0.139
172 | GAGGGGGC | -0.346
173 | ATACGCCC | -0.247
174 | CATTACTA | 0.0574
175 | ATGTTCAG | -0.076

Row | Sequence | PBM E-score
176 | ATAAGAAG | 0.166
177 | ACAAGAGT | -0.0721
178 | CACTGTAA | 0.141
179 | CTGACACA | -0.208
180 | GCTCCGGA | -0.236
181 | AGCAACAG | 0.0864
182 | CGCGTCTA | -0.0425
183 | TGCTTACA | 0.00935
184 | ACGTATTG | 0.0716
185 | GCACGGAC | 0.208
186 | ACGGTCTA | 0.112
187 | ACGGATCG | -0.0271
188 | ATGAGACG | 0.0508
189 | TGAGCCCA | -0.105
190 | ACAGAGGA | -0.0869
191 | AGACCCCA | -0.0171
192 | ACCGGAGG | -0.222
193 | GATCAGCA | 0.189
194 | TAAATCAA | 0.148
195 | AGACCCGC | -0.0507
196 | AGGATCGG | -0.214
197 | AATAAAGC | 0.0706
198 | CAGTTCGC | -0.0717
199 | GAAATCAA | 0.0471
200 | CGATAGAA | 0.00215

Row | Sequence | PBM E-score
201 | CTTGGCGC | 0.0227
202 | CATATTGG | 0.0318
203 | AGCCAATA | -0.125
204 | CACTCTGG | -0.0609
205 | CACTCCCC | -0.188
206 | CCATGGGG | -0.095
207 | GGAATCTA | 0.0145
208 | CGAGGTGA | 0.129
209 | GAGAAGGC | -0.225
210 | AAATAGTC | 0.00163
211 | CGTGAGTA | 0.155
212 | AAGCTCGC | -0.0978
213 | GACCGCCA | -0.188
214 | AACTTGGG | -0.238
215 | CGTACTTA | 0.236
216 | CACCACCC | -0.104
217 | CAACCGCA | -0.0837
218 | ATGATCTC | 0.296
219 | AACTTCCA | -0.097

Part of the list above, as a markdown table:

| Row | Sequence | PBM E-score |
| --- | --- | --- |
| 87 | AACCAGGG | -0.116 |
| 164 | CCTATGAC | 0.0281 |
| 174 | CATTACTA | 0.0574 |
